Results taken from article PMC11102469.
Results are given in words; binding and its absence hold for the method and conditions named. Sequences can lack the tags named with a protein.

Target: T1, MBP-tagged Rab11B (full-length, wild type) (Toxoplasma gondii) (UniProt Q7Z158)
T1 sequence: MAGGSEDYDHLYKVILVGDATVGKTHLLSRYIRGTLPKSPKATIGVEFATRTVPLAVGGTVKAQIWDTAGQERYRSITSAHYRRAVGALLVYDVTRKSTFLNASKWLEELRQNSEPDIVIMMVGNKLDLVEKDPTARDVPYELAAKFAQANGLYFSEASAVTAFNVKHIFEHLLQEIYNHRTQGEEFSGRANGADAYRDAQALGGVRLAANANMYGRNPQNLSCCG
Experiment: pull-down; 4 µg MBP-Rab or MBP-Rab^QL held on 20 µL MBP agarose resin as bait (MBP protein binding buffer with 1 mM DTT, 1 mM PMSF, 4 °C, 2 h); 4 µg his-TBC9 or his-TBC9^R74A in 500 µL his protein binding buffer, 4 °C, 2 h; washes with 0.1% Triton X-100; Western blot with anti-His and anti-MBP; both purified

For “His-tagged TBC9 (full-length, wild type) (Toxoplasma gondii)”, the binding was “no binding (tested: 4 µg his-TBC9 in 500 µL)”.
